In publication PMC7819943, “Rice protein-binding microarrays: a tool to detect cis-acting elements near promoter regions in rice”:
This is one part of the list.

The chains behind the UniProt entries cited, without tags or fusion partners.
UniProt Q0JBA9, entry or part of it: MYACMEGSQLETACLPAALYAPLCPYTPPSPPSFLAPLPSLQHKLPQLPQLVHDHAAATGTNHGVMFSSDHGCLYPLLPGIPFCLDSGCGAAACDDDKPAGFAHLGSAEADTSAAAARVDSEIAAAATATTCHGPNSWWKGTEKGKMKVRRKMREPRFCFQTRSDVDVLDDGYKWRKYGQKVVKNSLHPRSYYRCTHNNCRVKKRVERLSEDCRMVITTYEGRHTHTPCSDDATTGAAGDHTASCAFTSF

These sequences were tested against OsWRKY34 (Oryza sativa, UniProt Q0JBA9 1-250) (assay: protein-binding microarray (RPBM); PBS, 2% BSA, 51.3 ng/ul salmon testes DNA, 50 uM zinc acetate, 200 nM TF, 25 C, 1 h; high values mean tight binding). Conditions: protein: recombinant; tags: N-terminal polyhistidine and DsRed monomer fusion (pET32a); label: CyDye5-dUTP incorporated in the synthesized complementary strand; 3' TTTTT single-stranded linker to array surface; dsDNA, one strand shown.
Procedure, shortened: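 The binding signal for each feature is its fluorescence intensity in arbitrary units. An Axon 4000B scanner was used to read a custom Agilent array that had been made double-stranded with Cy5-dUTP primer extension, blocked with 2% BSA, incubated at 25 °C for 1 h with 200 nM protein in PBS, 2% BSA, salmon testes DNA and 50 µM zinc acetate, and washed. The protein was an N-terminal polyhistidine–DsRed transcription factor fusion from E. coli BL21-CodonPlus, purified on Ni–NTA.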

Sequence	binding signal
ATGACACTGTTTCGTTTCACCTTTAATTAAAGATTCCTATCGGAGTCACCTAGTGCAG	9330 fluorescence intensity (a.u.)
TCACGAGTAGATGCCGTTTCAGTTTCACCATGCCTATTTACGGAGTCACCTAGTGCAG	11900 fluorescence intensity (a.u.)
CAATAGGGTTTGCTCTTAATAACGTTCTTTTATCACTTTGCGGAGTCACCTAGTGCAG	8320 fluorescence intensity (a.u.)
GCCAATCCTTATCCTTAAACCCACCCATATAACCGCCTCTCGGAGTCACCTAGTGCAG	9780 fluorescence intensity (a.u.)
GAGGGGTGGATGGAAAGCGGGTGTGAGTGAGGAAGATCCCCGGAGTCACCTAGTGCAG	9820 fluorescence intensity (a.u.)
CGCTATGTTAGTTTTGTTTCACGCTAGTGGCGAGACCAGACGGAGTCACCTAGTGCAG	8940 fluorescence intensity (a.u.)
AACCCGCGGATGTCAGCATCCACCGTTTCGCATCGCGGATCGGAGTCACCTAGTGCAG	9520 fluorescence intensity (a.u.)
CCATCATATTTGACTATTTTCAGGTGTTAGTTTGGACGATCGGAGTCACCTAGTGCAG	9210 fluorescence intensity (a.u.)
CGAAAATCAGGGTTTGTTTGTCTTTTTTTTTCTGGAGGGACGGAGTCACCTAGTGCAG	8300 fluorescence intensity (a.u.)
TCCTCCATCGCCGAGAAGTCTATTTGCTTTCCTCCTTTTACGGAGTCACCTAGTGCAG	9230 fluorescence intensity (a.u.)
GCACCCAACCCGTCCATTCCATATGCACGTATCGTATCATCGGAGTCACCTAGTGCAG	8630 fluorescence intensity (a.u.)
TCGTATCACTATTGGCATAATTTTGGGGTTTTTTTAATATCGGAGTCACCTAGTGCAG	13200 fluorescence intensity (a.u.)
AACAAATGTACTTTCTCTGTTTCACAATGTAAGCCATTCTCGGAGTCACCTAGTGCAG	8340 fluorescence intensity (a.u.)
CCTTCCAGTTCACTCCACTCCGCTACTTTTTCCAACCGTCCGGAGTCACCTAGTGCAG	12000 fluorescence intensity (a.u.)
TGGCCTTTTTTTGACGGTCATAATTTTTGTTTTCTAAACCCGGAGTCACCTAGTGCAG	13900 fluorescence intensity (a.u.)
CAAACAATGGTCACGGCCTCATCTACATTTTCGTCCACCGCGGAGTCACCTAGTGCAG	10200 fluorescence intensity (a.u.)
TAATTTTACTCGATACTCTATGTACCCCTGAAATTTCGCTCGGAGTCACCTAGTGCAG	9560 fluorescence intensity (a.u.)
ATCTCGTTGACCGTGTCAAAGTCTAAAAATACCTATATTTCGGAGTCACCTAGTGCAG	9390 fluorescence intensity (a.u.)
GCTTCTATACATCTACAGGTTTCTGTAATTGATAGGTTAACGGAGTCACCTAGTGCAG	9030 fluorescence intensity (a.u.)
AGAACTGTTGGTTTTTATCGTGAGTCAAGTCTCACACTACCGGAGTCACCTAGTGCAG	8400 fluorescence intensity (a.u.)
TCGGAGGGCGAGGGGAGTATGCGGCGGAGGGAGGGAGGCACGGAGTCACCTAGTGCAG	9640 fluorescence intensity (a.u.)

Sequence	binding signal
CTCCTGGTAACAACGTAGCCTTAGTTCACATTTTTATAATCGGAGTCACCTAGTGCAG	8720 fluorescence intensity (a.u.)
CCATTGATCAATGTATACGTTTCCTATATGTGTTTATATTCGGAGTCACCTAGTGCAG	8550 fluorescence intensity (a.u.)
CTCACTACTCGTCGGTCGGCGCTACCCCGTGGCCACGCTTCGGAGTCACCTAGTGCAG	8210 fluorescence intensity (a.u.)
GCGTCCCCGTGCATCCATCTACTCGGCCGGCGACCGCGCGCGGAGTCACCTAGTGCAG	10100 fluorescence intensity (a.u.)
TATGTCACCTCGCCTTCGACTACGTACATACCACCCTGCGCGGAGTCACCTAGTGCAG	8300 fluorescence intensity (a.u.)
ATCCGTGTTTGAGTTGGTTTTTAAGTTTGTTTGCTTTTGGCGGAGTCACCTAGTGCAG	10400 fluorescence intensity (a.u.)
ATAAACGTAAACCCGCGATATTTTCGCCACAAATATTTGTCGGAGTCACCTAGTGCAG	8890 fluorescence intensity (a.u.)
TGCGGGATGGCTGGTTGGTGTGCGTGTGCTTCGGTGCGTTCGGAGTCACCTAGTGCAG	10400 fluorescence intensity (a.u.)
ACACAAGTTATGTTTTTTTTTTGCAATCTCCATGTAATTTCGGAGTCACCTAGTGCAG	9470 fluorescence intensity (a.u.)
TTTGTTCATCTTTTTCGTTTAACTAATTTCTTCTCTTTTTCGGAGTCACCTAGTGCAG	10100 fluorescence intensity (a.u.)
ATTCTCTTTGTAACCATCATATATTTTCCTCCAGAACTTTCGGAGTCACCTAGTGCAG	10500 fluorescence intensity (a.u.)
CCCGGTTCTGTTCTTGGTTCTTGGAAAGCCGGTGGGGTGCCGGAGTCACCTAGTGCAG	8740 fluorescence intensity (a.u.)
CACGAGAATCTGACCTGTTAACTCATATCTACTAATATCTCGGAGTCACCTAGTGCAG	9630 fluorescence intensity (a.u.)
TTGCCATCGACATTATCTCTTTCTATAATATACCAGCGACCGGAGTCACCTAGTGCAG	8420 fluorescence intensity (a.u.)
GCTGCTCGACTACGTCTTCCTGCTCGTGGGTCTTTTCTTCCGGAGTCACCTAGTGCAG	14000 fluorescence intensity (a.u.)
ACCTTTTTTTTTCGCCCGCAAATTTCATTAACACCACTTCCGGAGTCACCTAGTGCAG	8390 fluorescence intensity (a.u.)
TATATAGACTTGATATACCCTGTCTTTGCCCTTTTATTTCCGGAGTCACCTAGTGCAG	8150 fluorescence intensity (a.u.)
CTAGCTAGCTAGCTAGCTTTTGCTCCTACATCTTCACTTCCGGAGTCACCTAGTGCAG	8580 fluorescence intensity (a.u.)
CTTTTTTGGGTGATTTTTTTTCACTTGGGGTGGGTGATAACGGAGTCACCTAGTGCAG	21800 fluorescence intensity (a.u.)
TCTCTGACATGTTCTATCCATACCACTCAGGCACCTTCCTCGGAGTCACCTAGTGCAG	8240 fluorescence intensity (a.u.)
ACACCGTTGACTTTTTAGTACGTATTTGACCATTCGTCTTCGGAGTCACCTAGTGCAG	36700 fluorescence intensity (a.u.)

Sequence	binding signal
GGTGCTGGTGGTGGCCGCCCTGACGGTCCAGACTTTGCTACGGAGTCACCTAGTGCAG	8610 fluorescence intensity (a.u.)
GAGCTGCAACCACATGCTATCTGGCACTGCATCCTGAACTCGGAGTCACCTAGTGCAG	8390 fluorescence intensity (a.u.)
AGTTGGCTATAATATATTTCTTCTCTCTCTATCTCTCATTCGGAGTCACCTAGTGCAG	17700 fluorescence intensity (a.u.)
AGTTGCTTACTGTATTATTAATATCTAGTCCTACCTATCACGGAGTCACCTAGTGCAG	8260 fluorescence intensity (a.u.)
GCTATACTTGATGACCTACAGGCCTTGTAGTCTACCTGACCGGAGTCACCTAGTGCAG	9340 fluorescence intensity (a.u.)
CGTTAGCCCACGCATGGCCTCGTGTCACCGTCGCTTCGAGCGGAGTCACCTAGTGCAG	8770 fluorescence intensity (a.u.)
TATTTTTGACTTTGGTCAAAGTCAAACTGTTTTAAGTTTGCGGAGTCACCTAGTGCAG	17900 fluorescence intensity (a.u.)
TTCTTCTGCTCATGGGTACGCATTTTCTATCGCAGACACTCGGAGTCACCTAGTGCAG	10600 fluorescence intensity (a.u.)
AGCCCGTTTCCTCTGCTTTTGATTATTTTTCCTAAGTTTTCGGAGTCACCTAGTGCAG	12300 fluorescence intensity (a.u.)
GTTGCTGGTTTTGTTAGTTTGGTGACCTTGACTTGTAAGACGGAGTCACCTAGTGCAG	8670 fluorescence intensity (a.u.)
GGTCATTCATGTATTTTTCTTGCGTTTTGCAATCCTCTGTCGGAGTCACCTAGTGCAG	11200 fluorescence intensity (a.u.)
CATACCTTTCTATGCAACCAATTGCCAAATATCAATTTTCCGGAGTCACCTAGTGCAG	8470 fluorescence intensity (a.u.)
ATTTGCCCAACCATTGCTTTTATGTAAAACAAGCTGTTCTCGGAGTCACCTAGTGCAG	9600 fluorescence intensity (a.u.)
AGCTTTTGGTCTCATACTCTCATGTTCTTCGTCCCTCTGTCGGAGTCACCTAGTGCAG	10700 fluorescence intensity (a.u.)
TCTCTTCTCTCGCGCTCCCAACGACGCCGCCGCGGCGCCGCGGAGTCACCTAGTGCAG	8670 fluorescence intensity (a.u.)
CCTACCTGTAACCAGACCTTGACGCCGACACTCACGTGACCGGAGTCACCTAGTGCAG	8710 fluorescence intensity (a.u.)
GTTCCATTCCCCACCACCACCATCGCCAAAACCCTAGCTTCGGAGTCACCTAGTGCAG	8050 fluorescence intensity (a.u.)
GCGGCTCGGTAAGTTGGACTCAATTCCTCGTCTTCCAATCCGGAGTCACCTAGTGCAG	10100 fluorescence intensity (a.u.)
CTTTCTTTCTCGTCGTCACCCAGTTGCCGCTGATGCAATTCGGAGTCACCTAGTGCAG	8370 fluorescence intensity (a.u.)
CAAATTGCGTGAATATTGCCCGTCTCGCTGCAGAATGATCCGGAGTCACCTAGTGCAG	8970 fluorescence intensity (a.u.)
CGCCGATCTGTGGGGTGGGATGGTGGATCGATCCAGATCCCGGAGTCACCTAGTGCAG	8600 fluorescence intensity (a.u.)

Sequence	binding signal
AGAAGGATCTCTCATGGTGGGCTGGGCTTCTCTTAGCTGGCGGAGTCACCTAGTGCAG	9170 fluorescence intensity (a.u.)
GTGGGATATGGACTATGCGAGAGAGAGAGAGAGAGAGAGACGGAGTCACCTAGTGCAG	10300 fluorescence intensity (a.u.)
AATTATTTTCATTTGCTAAGTTACTATTTCGCATTTTTTTCGGAGTCACCTAGTGCAG	8650 fluorescence intensity (a.u.)
CACATGTGCTGTTATGAAATTAGTTTGTTCATTCGTGTTACGGAGTCACCTAGTGCAG	8970 fluorescence intensity (a.u.)
GCGGCGGGGTGGTGGAACCTTGCGTCTCGCGGCGGAGGGACGGAGTCACCTAGTGCAG	9670 fluorescence intensity (a.u.)
TATTTGATTTTTGTGATTTTGGTCATCTATCATTTCTTCCCGGAGTCACCTAGTGCAG	9010 fluorescence intensity (a.u.)
AATTTTTTTCCTCTCCTGTTTTGTGCCCTTGATATTATGTCGGAGTCACCTAGTGCAG	13400 fluorescence intensity (a.u.)
GACGACATAGGGGACATCTTCCGGAGCGTGGGGTGGGAGGCGGAGTCACCTAGTGCAG	10100 fluorescence intensity (a.u.)
CATTCTCCAACAAAGAGATCGTGGGTGGGTTTTCTTCTCCCGGAGTCACCTAGTGCAG	13100 fluorescence intensity (a.u.)
TGTTTTTTCTAACAATATGCACATCCACGGTTCTGTTTCTCGGAGTCACCTAGTGCAG	10600 fluorescence intensity (a.u.)
TTCCATGTGTCCCAGTTAAAGCAATTTGTTCCTGACAACACGGAGTCACCTAGTGCAG	8380 fluorescence intensity (a.u.)
CACCCCGCAGATCCACCAAACCACACACGGCCGTCGCTGACGGAGTCACCTAGTGCAG	8120 fluorescence intensity (a.u.)
CGTGATCCAGCTCTTGTTTCTCCTTTCTTTCAGTTGCATGCGGAGTCACCTAGTGCAG	9330 fluorescence intensity (a.u.)
TGCCTTTTCATTCTTCCCTCCTACCTCGTTGGCCACTACACGGAGTCACCTAGTGCAG	8390 fluorescence intensity (a.u.)
CGTGTTTTTCCTTATCACGTACTCCCACCTATTTGTATAACGGAGTCACCTAGTGCAG	8920 fluorescence intensity (a.u.)
GTGTTTTAAGTGCTCTCTTTGTTCTCAAGTGTGCATTTTTCGGAGTCACCTAGTGCAG	9180 ± 145 fluorescence intensity (a.u.)
CAACTTAGCATATTGAAATTTCTACTGTCATGCTTCCTTGCGGAGTCACCTAGTGCAG	8230 fluorescence intensity (a.u.)
GACCAGGCCCTCGCTCCGTCACACTCGCCTGCCTCCGTTCCGGAGTCACCTAGTGCAG	8540 fluorescence intensity (a.u.)
AGATTAGTTTCTATTTTAAGTTAGTTGCTCTTTCTGTTCCCGGAGTCACCTAGTGCAG	10200 fluorescence intensity (a.u.)
ATGACGCCCAATAATTCAACCGAAGAACAACCACACCTATCGGAGTCACCTAGTGCAG	9180 fluorescence intensity (a.u.)
TAATCGCGCGGGGAGGGTGCACGCGACTAATCGCCCATTACGGAGTCACCTAGTGCAG	8340 fluorescence intensity (a.u.)
